Results published in paper PMC10820798.

Chains of the proteins cited; added tags and fusions are not shown.
UniProt Q8TCU4: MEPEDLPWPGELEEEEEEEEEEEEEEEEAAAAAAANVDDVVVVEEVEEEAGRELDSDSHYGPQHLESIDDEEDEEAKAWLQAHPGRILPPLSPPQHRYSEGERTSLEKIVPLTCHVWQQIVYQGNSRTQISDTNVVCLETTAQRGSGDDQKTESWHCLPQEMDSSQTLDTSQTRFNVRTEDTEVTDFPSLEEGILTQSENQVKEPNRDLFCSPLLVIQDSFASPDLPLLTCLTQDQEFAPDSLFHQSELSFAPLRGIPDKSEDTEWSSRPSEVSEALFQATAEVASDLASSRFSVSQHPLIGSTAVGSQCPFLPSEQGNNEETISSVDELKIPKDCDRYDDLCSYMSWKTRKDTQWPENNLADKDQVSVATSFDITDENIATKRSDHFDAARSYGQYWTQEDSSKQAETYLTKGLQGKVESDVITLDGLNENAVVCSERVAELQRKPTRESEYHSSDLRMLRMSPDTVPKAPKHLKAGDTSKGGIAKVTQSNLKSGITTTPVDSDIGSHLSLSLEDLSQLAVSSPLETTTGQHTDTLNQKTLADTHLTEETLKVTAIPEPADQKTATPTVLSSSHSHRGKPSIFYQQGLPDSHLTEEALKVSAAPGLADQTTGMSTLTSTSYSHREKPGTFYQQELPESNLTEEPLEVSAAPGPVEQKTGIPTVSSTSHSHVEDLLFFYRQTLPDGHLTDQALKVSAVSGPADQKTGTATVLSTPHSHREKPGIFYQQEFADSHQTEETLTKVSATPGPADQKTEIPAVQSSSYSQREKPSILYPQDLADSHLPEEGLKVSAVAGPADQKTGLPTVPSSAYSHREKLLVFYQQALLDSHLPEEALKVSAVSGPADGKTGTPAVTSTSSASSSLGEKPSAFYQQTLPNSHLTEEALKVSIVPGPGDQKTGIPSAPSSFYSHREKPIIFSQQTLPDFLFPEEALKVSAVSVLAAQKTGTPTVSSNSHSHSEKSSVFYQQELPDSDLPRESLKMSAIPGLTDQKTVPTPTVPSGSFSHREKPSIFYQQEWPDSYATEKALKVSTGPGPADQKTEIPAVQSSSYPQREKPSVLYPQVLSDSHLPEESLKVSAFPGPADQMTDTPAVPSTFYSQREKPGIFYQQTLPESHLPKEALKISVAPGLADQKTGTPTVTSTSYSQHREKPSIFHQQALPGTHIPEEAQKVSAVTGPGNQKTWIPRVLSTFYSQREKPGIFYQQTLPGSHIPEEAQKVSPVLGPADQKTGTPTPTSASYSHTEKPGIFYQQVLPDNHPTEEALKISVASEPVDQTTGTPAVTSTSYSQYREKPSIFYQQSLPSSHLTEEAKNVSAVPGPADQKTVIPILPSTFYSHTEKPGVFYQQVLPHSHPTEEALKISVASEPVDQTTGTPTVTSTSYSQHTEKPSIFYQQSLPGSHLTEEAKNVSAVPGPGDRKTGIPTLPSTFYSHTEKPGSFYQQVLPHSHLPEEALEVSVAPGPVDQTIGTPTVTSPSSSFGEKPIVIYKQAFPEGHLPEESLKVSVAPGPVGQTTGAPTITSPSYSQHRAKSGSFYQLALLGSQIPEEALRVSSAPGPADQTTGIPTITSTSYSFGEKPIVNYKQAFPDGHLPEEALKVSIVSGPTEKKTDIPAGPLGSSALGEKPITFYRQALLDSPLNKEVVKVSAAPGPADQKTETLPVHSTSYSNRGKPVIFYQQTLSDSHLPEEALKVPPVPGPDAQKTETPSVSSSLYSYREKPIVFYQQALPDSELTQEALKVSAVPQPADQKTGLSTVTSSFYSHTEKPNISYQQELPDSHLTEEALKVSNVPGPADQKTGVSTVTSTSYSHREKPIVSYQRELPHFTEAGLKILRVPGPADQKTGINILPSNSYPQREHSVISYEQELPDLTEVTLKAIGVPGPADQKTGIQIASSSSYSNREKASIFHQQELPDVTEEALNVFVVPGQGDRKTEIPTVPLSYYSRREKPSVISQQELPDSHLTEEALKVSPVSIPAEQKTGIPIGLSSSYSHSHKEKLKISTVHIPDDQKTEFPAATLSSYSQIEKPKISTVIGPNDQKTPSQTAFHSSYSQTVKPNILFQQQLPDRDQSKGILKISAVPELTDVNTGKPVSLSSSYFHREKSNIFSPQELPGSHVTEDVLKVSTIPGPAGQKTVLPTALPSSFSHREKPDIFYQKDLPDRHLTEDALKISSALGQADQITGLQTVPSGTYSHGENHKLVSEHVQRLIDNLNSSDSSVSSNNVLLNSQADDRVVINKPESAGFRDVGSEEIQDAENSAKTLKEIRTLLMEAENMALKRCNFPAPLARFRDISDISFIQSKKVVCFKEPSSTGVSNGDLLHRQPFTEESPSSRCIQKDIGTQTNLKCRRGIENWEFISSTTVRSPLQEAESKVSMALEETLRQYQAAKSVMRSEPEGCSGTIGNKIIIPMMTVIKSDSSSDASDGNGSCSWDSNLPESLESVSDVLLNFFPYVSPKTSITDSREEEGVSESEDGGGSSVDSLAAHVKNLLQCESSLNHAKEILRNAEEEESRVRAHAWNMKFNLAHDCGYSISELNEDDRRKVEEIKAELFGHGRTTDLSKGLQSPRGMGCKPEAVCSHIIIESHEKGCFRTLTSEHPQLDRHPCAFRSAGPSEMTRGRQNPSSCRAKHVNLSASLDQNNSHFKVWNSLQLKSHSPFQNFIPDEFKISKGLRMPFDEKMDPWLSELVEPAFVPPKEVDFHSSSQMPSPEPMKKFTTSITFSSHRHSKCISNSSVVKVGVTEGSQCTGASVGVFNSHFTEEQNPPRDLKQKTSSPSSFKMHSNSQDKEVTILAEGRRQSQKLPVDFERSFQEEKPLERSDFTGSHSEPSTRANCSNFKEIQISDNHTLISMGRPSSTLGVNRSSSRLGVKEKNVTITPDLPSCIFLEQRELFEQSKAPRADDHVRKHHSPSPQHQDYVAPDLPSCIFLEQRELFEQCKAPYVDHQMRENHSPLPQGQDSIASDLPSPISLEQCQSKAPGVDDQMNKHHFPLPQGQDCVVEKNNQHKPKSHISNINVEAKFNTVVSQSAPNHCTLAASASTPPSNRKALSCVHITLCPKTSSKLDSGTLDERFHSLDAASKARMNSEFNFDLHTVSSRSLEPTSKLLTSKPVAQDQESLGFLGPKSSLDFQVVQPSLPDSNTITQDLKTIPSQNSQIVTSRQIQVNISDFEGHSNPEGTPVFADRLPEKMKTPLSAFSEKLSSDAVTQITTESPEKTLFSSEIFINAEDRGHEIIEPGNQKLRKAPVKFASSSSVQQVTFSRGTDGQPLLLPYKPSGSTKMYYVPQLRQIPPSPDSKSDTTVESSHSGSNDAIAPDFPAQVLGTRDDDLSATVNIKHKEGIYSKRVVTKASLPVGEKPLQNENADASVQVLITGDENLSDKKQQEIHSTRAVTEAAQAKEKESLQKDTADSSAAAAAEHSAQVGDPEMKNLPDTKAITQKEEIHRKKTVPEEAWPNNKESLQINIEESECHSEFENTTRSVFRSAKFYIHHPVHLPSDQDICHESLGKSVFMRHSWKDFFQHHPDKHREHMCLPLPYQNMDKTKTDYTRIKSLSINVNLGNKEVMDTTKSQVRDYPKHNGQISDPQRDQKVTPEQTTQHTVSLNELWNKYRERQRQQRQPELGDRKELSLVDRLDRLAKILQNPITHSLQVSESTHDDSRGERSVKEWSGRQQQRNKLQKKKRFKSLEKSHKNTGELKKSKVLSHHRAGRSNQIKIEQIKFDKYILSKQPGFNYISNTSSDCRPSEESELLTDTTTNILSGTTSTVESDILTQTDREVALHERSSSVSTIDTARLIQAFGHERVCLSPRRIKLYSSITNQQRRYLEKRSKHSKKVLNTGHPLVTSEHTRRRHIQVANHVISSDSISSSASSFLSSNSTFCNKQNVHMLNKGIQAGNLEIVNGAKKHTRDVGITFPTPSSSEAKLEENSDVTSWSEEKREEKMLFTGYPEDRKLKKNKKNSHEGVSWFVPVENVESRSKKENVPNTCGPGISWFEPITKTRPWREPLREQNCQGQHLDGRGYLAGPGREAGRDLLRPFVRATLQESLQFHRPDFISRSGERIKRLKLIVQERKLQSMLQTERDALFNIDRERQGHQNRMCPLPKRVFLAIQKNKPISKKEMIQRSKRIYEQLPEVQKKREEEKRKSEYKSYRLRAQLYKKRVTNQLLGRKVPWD
UniProt Q96JN8: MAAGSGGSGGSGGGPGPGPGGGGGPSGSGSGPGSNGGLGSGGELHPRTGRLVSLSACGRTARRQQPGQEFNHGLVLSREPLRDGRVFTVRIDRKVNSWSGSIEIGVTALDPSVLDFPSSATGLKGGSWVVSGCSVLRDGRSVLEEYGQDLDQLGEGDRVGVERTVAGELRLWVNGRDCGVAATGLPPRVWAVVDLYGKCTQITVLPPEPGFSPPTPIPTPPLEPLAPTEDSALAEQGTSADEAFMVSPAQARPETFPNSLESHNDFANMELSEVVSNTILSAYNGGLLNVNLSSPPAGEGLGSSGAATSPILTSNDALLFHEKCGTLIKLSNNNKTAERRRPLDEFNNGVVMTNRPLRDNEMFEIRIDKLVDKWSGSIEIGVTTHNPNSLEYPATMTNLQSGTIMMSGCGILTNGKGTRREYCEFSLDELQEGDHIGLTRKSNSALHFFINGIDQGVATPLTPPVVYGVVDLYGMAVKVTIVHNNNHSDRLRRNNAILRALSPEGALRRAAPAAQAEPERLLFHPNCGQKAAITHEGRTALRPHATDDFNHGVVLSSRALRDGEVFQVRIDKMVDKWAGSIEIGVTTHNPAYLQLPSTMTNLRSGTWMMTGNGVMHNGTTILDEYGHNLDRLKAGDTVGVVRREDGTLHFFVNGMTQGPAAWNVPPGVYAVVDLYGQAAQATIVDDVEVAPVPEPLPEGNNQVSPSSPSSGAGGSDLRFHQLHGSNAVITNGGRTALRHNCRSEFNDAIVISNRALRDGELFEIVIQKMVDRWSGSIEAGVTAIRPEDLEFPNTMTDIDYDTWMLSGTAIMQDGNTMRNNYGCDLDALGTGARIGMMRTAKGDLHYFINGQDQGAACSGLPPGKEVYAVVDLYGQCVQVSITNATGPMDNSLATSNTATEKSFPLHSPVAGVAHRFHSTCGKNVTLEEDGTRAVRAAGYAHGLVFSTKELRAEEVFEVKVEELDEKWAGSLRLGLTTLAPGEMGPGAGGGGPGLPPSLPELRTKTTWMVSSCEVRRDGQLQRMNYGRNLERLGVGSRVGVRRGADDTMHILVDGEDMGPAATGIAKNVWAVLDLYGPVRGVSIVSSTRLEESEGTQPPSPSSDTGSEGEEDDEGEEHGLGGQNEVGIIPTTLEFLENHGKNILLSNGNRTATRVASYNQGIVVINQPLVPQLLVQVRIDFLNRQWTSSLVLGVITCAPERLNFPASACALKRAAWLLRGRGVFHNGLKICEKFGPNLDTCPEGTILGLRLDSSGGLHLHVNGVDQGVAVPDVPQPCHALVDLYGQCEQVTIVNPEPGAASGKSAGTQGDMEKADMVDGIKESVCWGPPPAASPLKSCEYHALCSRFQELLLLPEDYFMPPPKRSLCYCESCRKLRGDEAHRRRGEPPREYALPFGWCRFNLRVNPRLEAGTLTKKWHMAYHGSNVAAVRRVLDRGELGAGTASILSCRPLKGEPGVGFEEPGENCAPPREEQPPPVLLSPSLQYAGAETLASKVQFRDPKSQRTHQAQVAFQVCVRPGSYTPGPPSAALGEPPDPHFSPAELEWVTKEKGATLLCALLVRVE
UniProt O43823: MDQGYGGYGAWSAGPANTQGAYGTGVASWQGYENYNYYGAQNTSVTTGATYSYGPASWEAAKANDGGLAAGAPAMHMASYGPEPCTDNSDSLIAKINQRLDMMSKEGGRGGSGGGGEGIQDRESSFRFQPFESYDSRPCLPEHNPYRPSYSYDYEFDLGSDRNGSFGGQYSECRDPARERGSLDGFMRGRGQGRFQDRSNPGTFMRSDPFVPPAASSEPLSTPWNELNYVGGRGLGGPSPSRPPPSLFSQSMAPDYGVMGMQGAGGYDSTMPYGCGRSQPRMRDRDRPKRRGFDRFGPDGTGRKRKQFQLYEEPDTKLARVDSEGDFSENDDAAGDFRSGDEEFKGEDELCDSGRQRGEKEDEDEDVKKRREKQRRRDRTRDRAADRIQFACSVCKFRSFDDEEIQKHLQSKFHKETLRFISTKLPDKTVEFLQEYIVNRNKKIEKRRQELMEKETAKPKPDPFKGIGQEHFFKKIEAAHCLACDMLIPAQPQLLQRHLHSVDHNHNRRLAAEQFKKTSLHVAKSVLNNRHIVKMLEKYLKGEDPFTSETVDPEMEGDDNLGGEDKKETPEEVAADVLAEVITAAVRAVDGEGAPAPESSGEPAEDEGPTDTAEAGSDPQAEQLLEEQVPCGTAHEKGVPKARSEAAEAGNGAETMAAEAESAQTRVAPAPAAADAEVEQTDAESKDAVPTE

Legend:
[1] = target: endogenously sfGFP-tagged ALMS1 (ALMS1-sfGFP) (human (endogenous in HEK293T)) (UniProt Q8TCU4); assay: affinity purification with mass spectrometry; GFP-Trap agarose on lysates (0.5% NP40) of three HEK293T single clones with endogenous ALMS1-sfGFP, starved overnight; 1 h at 4 °C; untagged HEK293T as control; six replicates; label-free quantification, Tier 1/Tier 2 statistics
[2] = target: T1, N-terminal Strep/FLAG-tagged CEP70 full-length (NSF-CEP70) (human) (UniProt Q8NHQ1); assay: affinity purification with mass spectrometry; FLAG agarose on lysates (0.5% NP40) of HEK293T transfected with NSF-CEP70 full-length, CC1-2 or TPR-CT; 1 h at 4 °C; on-bead digest; NSF-RAF1 as control; six replicates; label-free quantification, Tier 1/Tier 2 statistics
T1 sequence: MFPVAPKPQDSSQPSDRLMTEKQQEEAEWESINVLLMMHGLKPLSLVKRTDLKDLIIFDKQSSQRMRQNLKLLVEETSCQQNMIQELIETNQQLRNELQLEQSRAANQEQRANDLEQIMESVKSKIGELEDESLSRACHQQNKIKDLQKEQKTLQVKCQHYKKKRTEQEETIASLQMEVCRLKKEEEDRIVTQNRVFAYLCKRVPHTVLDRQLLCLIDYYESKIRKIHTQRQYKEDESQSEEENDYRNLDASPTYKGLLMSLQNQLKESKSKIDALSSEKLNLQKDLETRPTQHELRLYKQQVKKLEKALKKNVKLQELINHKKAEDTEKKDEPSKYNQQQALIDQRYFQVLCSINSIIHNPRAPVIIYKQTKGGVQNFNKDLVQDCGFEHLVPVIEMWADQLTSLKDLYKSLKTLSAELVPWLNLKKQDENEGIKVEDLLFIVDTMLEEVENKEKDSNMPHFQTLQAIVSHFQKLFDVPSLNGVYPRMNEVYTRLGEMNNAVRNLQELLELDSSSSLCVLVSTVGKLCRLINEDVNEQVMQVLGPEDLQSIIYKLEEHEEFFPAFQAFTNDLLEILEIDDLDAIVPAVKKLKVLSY

[3] = target: endogenously sfGFP-tagged ALMS1 (ALMS1-sfGFP) (human (endogenous in HEK293T)) (UniProt Q8TCU4); assay: affinity purification with mass spectrometry; GFP-Trap agarose on lysates (0.5% NP40) of three HEK293T single clones with endogenous ALMS1-sfGFP, starved overnight; 1 h at 4 °C; untagged HEK293T as control; six replicates; label-free quantification, Tier 1/Tier 2 statistics; remark: listed apart in the source

Molecule: ATG3 (from UniProt Q9NT62 1-314)
- binding [2]: binds

Molecule: UBR4 (from UniProt Q5T4S7 1-5183)
- binding [2]: binds

Molecule: CEP350 (from UniProt Q5VT06 1-3117)
- binding [2]: binds

Molecule: BAX (from UniProt Q07812 1-192)
- binding [2]: binds

B1: CEP135 (protein, UniProt Q66GS9 1-1140)
chain: MTTAVERKYINIRKRLDQLGYRQTLTVECLPLVEKLFSDLVHTTESLRQSKLSAVKAEKESANFDFVLEPYKLENARLSRENNELYLELMKLREHSDQHVKELKTSLKKCARETADLKFLNNQYAHKLKLLEKESKAKNERIQQLQEKNLHAVVQTPGGKKRSIAFRRQRMQIDEPVPPSEVSSYPVPQPDDPYIADLLQVADNRIQELQQEVHQLQEKLAMMESGVRDYSKQIELREREIERLSVALDGGRSPDVLSLESRNKTNEKLIAHLNIQVDFLQQANKDLEKRIRELMETKETVTSEVVNLSNKNEKLCQELTEIDQLAQQLERHKEEVLETADKELGEAKKEIKRKLSEMQDLEETMAKLQLELNLCQKEKERLSDELLVKSDLETVVHQLEQEKQRLSKKVESFAVTERQLTLEVERMRLEHGIKRRDRSPSRLDTFLKGIEEERDYYKKELERLQHIIQRRSCSTSYSAREKSSIFRTPEKGDYNSEIHQITRERDELQRMLERFEKYMEDIQSNVKLLTAERDKLSVLYNEAQEELSALRKESTQTTAPHNIVSLMEKEKELALSDLRRIMAEKEALREKLEHIEEVSLFGKSELEKTIEHLTCVNHQLESEKYELKSKVLIMKETIESLENKLKVQAQKFSHVAGDSSHQKTEVNSLRIVNEQLQRSVDDYQHRLSIKRGELESAQAQIKILEEKIDELNLKMTSQDEEAHVMKKTIGVIDKEKDFLQETVDEKTEKIANLQENLANKEKAVAQMKIMISECESSVNQLKETLVNRDREINSLRRQLDAAHKELDEVGRSREIAFKENRRLQDDLATMARENQEISLELEAAVQEKEEMKSRVHKYITEVSRWESLMAAKEKENQDLLDRFQMLHNRAEDWEVKAHQAEGESSSVRLELLSIDTERRHLRERVELLEKEIQEHINAHHAYESQISSMAKAMSRLEEELRHQEDEKATVLNDLSSLRELCIKLDSGKDIMTQQLNSKNLEFERVVVELENVKSESDLLKKQLSNERHTVKNLESLLATNRDKEFHSHLTSHEKDTEIQLLKEKLTLSESKLTSQSRENTMLRAKVAQLQTDYDALKRQISTERYERERAIQEMRRHGLATPPLSSTLRSPSHSPEHRNV
- binding [2]: binds

B2: UACA (protein, UniProt Q9BZF9 1-1416)
chain: MKSLKSRLRRQDVPGPASSGAAAASAHAADWNKYDDRLMKAAERGDVEKVTSILAKKGVNPGKLDVEGRSVFHVVTSKGNLECLNAILIHGVDITTSDTAGRNALHLAAKYGHALCLQKLLQYNCPTEHADLQGRTALHDAAMADCPSSIQLLCDHGASVNAKDVDGRTPLVLATQMSRPTICQLLIDRGADVNSRDKQNRTALMLGCEYGCRDAVEVLIKNGADISLLDALGHDSSYYARIGDNLDILTLLKTASENTNKGRELWKKGPSLQQRNLTHMQDEVNVKSHQREHQNIQDLEIENEDLKERLRKIQQEQRILLDKVNGLQLQLNEEVMVADDLESEREKLKSLLAAKEKQHEESLRTIEALKNRFKYFESDHLGSGSHFSNRKEDMLLKQGQMYMADSQCTSPGIPAHMQSRSMLRPLELSLPSQTSYSENEILKKELEAMRTFCESAKQDRLKLQNELAHKVAECKALALECERVKEDSDEQIKQLEDALKDVQKRMYESEGKVKQMQTHFLALKEHLTSEAASGNHRLTEELKDQLKDLKVKYEGASAEVGKLRNQIKQNEMIVEEFKRDEGKLIEENKRLQKELSMCEMEREKKGRKVTEMEGQAKELSAKLALSIPAEKFENMKSSLSNEVNEKAKKLVEMEREHEKSLSEIRQLKRELENVKAKLAQHVKPEEHEQVKSRLEQKSGELGKKITELTLKNQTLQKEIEKVYLDNKLLKEQAHNLTIEMKNHYVPLKVSEDMKKSHDAIIDDLNRKLLDVTQKYTEKKLEMEKLLLENDSLSKDVSRLETVFVPPEKHEKEIIALKSNIVELKKQLSELKKKCGEDQEKIHALTSENTNLKKMMSNQYVPVKTHEEVKMTLNDTLAKTNRELLDVKKKFEDINQEFVKIKDKNEILKRNLENTQNQIKAEYISLAEHEAKMSSLSQSMRKVQDSNAEILANYRKGQEEIVTLHAEIKAQKKELDTIQECIKVKYAPIVSFEECERKFKATEKELKDQLSEQTQKYSVSEEEVKKNKQENDKLKKEIFTLQKDLRDKTVLIEKSHEMERALSRKTDELNKQLKDLSQKYTEVKNVKEKLVEENAKQTSEILAVQNLLQKQHVPLEQVEALKKSLNGTIENLKEELKSMQRCYEKEQQTVTKLHQLLENQKNSSVPLAEHLQIKEAFEKEVGIIKASLREKEEESQNKMEEVSKLQSEVQNTKQALKKLETREVVDLSKYKATKSDLETQISSLNEKLANLNRKYEEVCEEVLHAKKKEISAKDEKELLHFSIEQEIKDQKERCDKSLTTITELQRRIQESAKQIEAKDNKITELLNDVERLKQALNGLSQLTYTSGNPTKRQSQLIDTLQHQVKSLEQQLADADRQHQEVIAIYRTHLLSAAQGHMDEDVQEALLQIIQMRQGLVC
- binding [2]: binds

B3: Ectonucleotide pyrophosphatase/phosphodiesterase family member 1 (ENPP1) (protein, UniProt P22413 1-925)
chain: MERDGCAGGGSRGGEGGRAPREGPAGNGRDRGRSHAAEAPGDPQAAASLLAPMDVGEEPLEKAARARTAKDPNTYKVLSLVLSVCVLTTILGCIFGLKPSCAKEVKSCKGRCFERTFGNCRCDAACVELGNCCLDYQETCIEPEHIWTCNKFRCGEKRLTRSLCACSDDCKDKGDCCINYSSVCQGEKSWVEEPCESINEPQCPAGFETPPTLLFSLDGFRAEYLHTWGGLLPVISKLKKCGTYTKNMRPVYPTKTFPNHYSIVTGLYPESHGIIDNKMYDPKMNASFSLKSKEKFNPEWYKGEPIWVTAKYQGLKSGTFFWPGSDVEINGIFPDIYKMYNGSVPFEERILAVLQWLQLPKDERPHFYTLYLEEPDSSGHSYGPVSSEVIKALQRVDGMVGMLMDGLKELNLHRCLNLILISDHGMEQGSCKKYIYLNKYLGDVKNIKVIYGPAARLRPSDVPDKYYSFNYEGIARNLSCREPNQHFKPYLKHFLPKRLHFAKSDRIEPLTFYLDPQWQLALNPSERKYCGSGFHGSDNVFSNMQALFVGYGPGFKHGIEADTFENIEVYNLMCDLLNLTPAPNNGTHGSLNHLLKNPVYTPKHPKEVHPLVQCPFTRNPRDNLGCSCNPSILPIEDFQTQFNLTVAEEKIIKHETLPYGRPRVLQKENTICLLSQHQFMSGYSQDILMPLWTSYTVDRNDSFSTEDFSNCLYQDFRIPLSPVHKCSFYKNNTKVSYGFLSPPQLNKNSSGIYSEALLTTNIVPMYQSFQVIWRYFHDTLLRKYAEERNGVNVVSGPVFDFDYDGRCDSLENLRQKRRVIRNQEILIPTHFFIVLTSCKDTSQTPLHCENLDTLAFILPHRTDNSESCVHGKHDSSWVEELLMLHRARITDVEHITGLSFYQQRKEPVSDILKLKTHLPTFSQED
- binding [2]: binds

B4: TP53PK (protein, UniProt Q96S44 1-253)
chain: MAAARATTPADGEEPAPEAEALAAARERSSRFLSGLELVKQGAEARVFRGRFQGRAAVIKHRFPKGYRHPALEARLGRRRTVQEARALLRCRRAGISAPVVFFVDYASNCLYMEEIEGSVTVRDYIQSTMETEKTPQGLSNLAKTIGQVLARMHDEDLIHGDLTTSNMLLKPPLEQLNIVLIDFGLSFISALPEDKGVDLYVLEKAFLSTHPNTETVFEAFLKSYSTSSKKARPVLKKLDEVRLRGRKRSMVG
- binding [2]: binds

More lines, main results first:

- binding [1]: binds
Molecule: E3 ubiquitin-protein ligase HERC2 (from UniProt O95714 1-4834)

- binding [1]: binds
Molecule: histone deacetylase 6 (HDAC6) (from UniProt Q9UBN7 1-1215)
- binding [2]: no binding

- binding [1]: binds
Molecule: AKAP11 (from UniProt Q9UKA4 1-1901)

- binding [1]: binds
Molecule: FSD1 (from UniProt Q9BTV5 1-496)

- binding [1]: binds
Molecule: NEURL4 (from UniProt Q96JN8 1-1562)

- binding [1]: binds
Molecule: ASPM (from UniProt Q8IZT6 1-3477)
- binding [2]: binds

- binding [1]: binds
Molecule: AKAP8 (from UniProt O43823 1-692)
- binding [2]: binds

- binding [1]: binds
Molecule: CXorf56 (from UniProt Q9H5V9 1-222)
- binding [2]: binds

- binding [1]: binds
Molecule: PRKAR1A (from UniProt P10644 1-381)

- binding [3]: binds
B5: centrosomal protein 70 kDa (CEP70), endogenous (protein, UniProt Q8NHQ1 1-597)
chain: T1 sequence

Like-named read-outs stand apart in the source and are kept apart here. Results are given in words; binding and its absence hold for the method and conditions named. Binding seen in cells or lysates may run through a third protein. A yes stands for co-enrichment or nearness to the bait. Other partners may have been found. For some of these results: No binding means not detected with the bait. For some of these results: Where a sequence is shown, tags or fusion partners need not be part of it. Each block holds one molecule with its values, some of them ahead of it.
